Results: article PMC5996148
“And” between values parts separate entries of the source, which are not always exact repeats. Equal values may be shown once. Some of the results follow. For some assays here: The exact form of the protein is not confirmed.

The chains behind the UniProt entries cited, without tags or fusion partners. Where a name states a change or a piece, a line headed by the entry shows the natural chain unless it says otherwise.
UniProt Q12904: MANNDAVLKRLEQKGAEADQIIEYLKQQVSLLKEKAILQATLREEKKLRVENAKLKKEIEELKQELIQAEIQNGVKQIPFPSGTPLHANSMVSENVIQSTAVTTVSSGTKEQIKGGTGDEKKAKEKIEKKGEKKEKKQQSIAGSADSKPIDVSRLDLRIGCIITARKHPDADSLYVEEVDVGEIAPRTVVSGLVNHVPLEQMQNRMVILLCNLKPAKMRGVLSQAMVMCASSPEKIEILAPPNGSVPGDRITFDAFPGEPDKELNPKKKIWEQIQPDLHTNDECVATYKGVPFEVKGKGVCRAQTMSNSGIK
UniProt Q8NC51: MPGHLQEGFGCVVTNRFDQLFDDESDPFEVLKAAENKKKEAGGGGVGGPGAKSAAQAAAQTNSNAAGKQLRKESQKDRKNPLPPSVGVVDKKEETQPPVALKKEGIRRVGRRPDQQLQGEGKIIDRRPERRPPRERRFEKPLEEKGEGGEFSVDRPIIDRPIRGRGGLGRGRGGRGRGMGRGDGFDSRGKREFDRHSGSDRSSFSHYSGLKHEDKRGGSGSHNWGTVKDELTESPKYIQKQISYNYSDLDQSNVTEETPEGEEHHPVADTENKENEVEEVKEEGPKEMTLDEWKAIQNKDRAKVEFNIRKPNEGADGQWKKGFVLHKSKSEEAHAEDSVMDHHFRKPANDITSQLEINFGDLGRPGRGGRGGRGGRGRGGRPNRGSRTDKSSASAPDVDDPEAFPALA

How the values were obtained:
Test in all cases: protein microarray (ProtoArray v5.0), streptavidin-Alexa Fluor 647
Conditions in all cases: 3'-biotin; 20 mM Tris (pH 7.5), 5 mM MgCl2, 100 mM KCl, 0.1% Tween-20, A/T-rich and random oligonucleotide blockers; temperature not stated; high values mean tight binding
SCC-112 (human) = tested on: SCC-112 (human)
SCEL = target: T1, SCEL (UniProt O95171)
T1 sequence: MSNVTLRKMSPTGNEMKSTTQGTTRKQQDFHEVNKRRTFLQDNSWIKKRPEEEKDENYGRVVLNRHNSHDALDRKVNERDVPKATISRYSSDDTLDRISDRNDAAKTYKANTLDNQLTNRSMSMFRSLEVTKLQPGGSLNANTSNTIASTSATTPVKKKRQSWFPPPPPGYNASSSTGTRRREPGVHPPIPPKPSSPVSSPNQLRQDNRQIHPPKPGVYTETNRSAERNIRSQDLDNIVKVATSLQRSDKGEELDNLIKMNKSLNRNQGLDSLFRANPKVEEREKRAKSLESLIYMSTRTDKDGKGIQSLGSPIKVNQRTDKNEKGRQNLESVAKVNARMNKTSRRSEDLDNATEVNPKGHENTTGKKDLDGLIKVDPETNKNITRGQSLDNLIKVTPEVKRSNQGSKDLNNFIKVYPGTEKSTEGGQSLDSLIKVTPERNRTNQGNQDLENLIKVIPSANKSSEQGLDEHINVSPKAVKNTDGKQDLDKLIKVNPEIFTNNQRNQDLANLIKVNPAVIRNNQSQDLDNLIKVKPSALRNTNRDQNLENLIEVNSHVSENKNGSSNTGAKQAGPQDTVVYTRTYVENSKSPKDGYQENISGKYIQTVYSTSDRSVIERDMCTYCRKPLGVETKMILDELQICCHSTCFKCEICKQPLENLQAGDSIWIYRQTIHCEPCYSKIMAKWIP

SCGB1A1 (human) = tested on: SCGB1A1 (human)
SCGB1C1 (human) = tested on: SCGB1C1 (human)
SCGB3A1 (human) = tested on: SCGB3A1 (human)
SCP2 (human) = tested on: SCP2 (human)
SCYE1 = SCYE1 (UniProt Q12904)
SDC1 (human) = tested on: SDC1 (human)
SDC4 (human) = tested on: SDC4 (human)
SDSL (human) = tested on: SDSL (human)
SEC13L1 (human) = tested on: SEC13L1 (human)
SELPLG (human) = tested on: SELPLG (human)
SENP8 (human) = tested on: SENP8 (human)
SEPHS2 (human) = tested on: SEPHS2 (human)
SEPP1 (human) = tested on: SEPP1 (human)
SEPT11 (human) = tested on: SEPT11 (human)
SEPT4 (human) = tested on: SEPT4 (human)
SEPT6 (human) = tested on: SEPT6 (human)
SEPT9 (human) = tested on: SEPT9 (human)
SERBP1 = SERBP1 (UniProt Q8NC51)

Q: For “GGTGACAGGGGTATGGGGAGGGG [G4-2 biotinylated (Ct1)]”, which binding signal (SCC-112 (human)) is on record?
A: 3.45 z-score

Q: And the binding signal (SCEL)?
A: 3.91 z-score

Q: And the binding signal (SCGB1A1 (human))?
A: -0.4 z-score

Q: And the binding signal (SCGB1C1 (human))?
A: -0.396 z-score

Q: What about the binding signal (SCGB3A1 (human)) of the same sequence?
A: -0.364 z-score

Q: What about the binding signal (SCP2 (human)) of the same sequence?
A: -0.399 z-score

Q: And the binding signal (SCYE1)?
A: 5.44 z-score

Q: And the binding signal (SDC1 (human))?
A: -0.383 z-score

Q: And the binding signal (SDC4 (human))?
A: -0.369 z-score

Q: And the binding signal (SDSL (human))?
A: -0.397 z-score

Q: What about the binding signal (SEC13L1 (human)) of the same sequence?
A: -0.39 z-score

Q: And the binding signal (SELPLG (human))?
A: -0.383 z-score

Q: And the binding signal (SENP8 (human))?
A: -0.406 z-score

Q: And the binding signal (SEPHS2 (human))?
A: -0.4 z-score

Q: What about the binding signal (SEPP1 (human)) of the same sequence?
A: -0.373 z-score

Q: And the binding signal (SEPT11 (human))?
A: -0.398 z-score

Q: What about the binding signal (SEPT4 (human)) of the same sequence?
A: -0.37 z-score

Q: What about the binding signal (SEPT6 (human)) of the same sequence?
A: -0.368 z-score and -0.384 z-score

Q: And the binding signal (SEPT9 (human))?
A: -0.376 z-score

Q: What about the binding signal (SERBP1) of the same sequence?
A: 4.58 z-score and 5.11 z-score
